pIC50: −log10 of the molar value. For some assays here: Where cells or extracts were used, other partners may take part. For some assays here: The exact form of at least one protein or probe is not confirmed.
Legend:
[1] = biological target: KIT (CD117), on MDA-MB-231 cells (Homo sapiens) (UniProt P10721); test: activity in cells; settings: PS between last 3 nt at 5' end of DNA aptamer; C3 spacer between aptamer and RNA passenger; 2'-F-U in RNA; 3' TEG-cholesterol on second passenger; miR-26a delivered to MDA-MB-231 cells; in xenografts raised in KIT+ but not KIT- tumor cells; protein on the cell surface; dose not given here
[2] = biological target: c-Kit overexpressed on MEF cells (UniProt P05532); test: activity in cells; settings: C3 spacer between aptamer and linker in each strand; PS at first three and last three linkages; exosome delivery to c-Kit overexpressing MEF cells enhanced by targeting chimera; protein on the cell surface; dose not given here
[3] = biological target: c-Kit, on TUBO cells (Mus musculus) (UniProt P05532); test: flow cytometry; settings: PS between last 3 nt at 5' end of DNA aptamer; C3 spacer between aptamer and RNA passenger; 2'-F-U in RNA; 3' TEG-cholesterol on second passenger; biotinylated chimera on TUBO cells; level comparable to anti-c-Kit antibody; protein on the cell surface; label: biotin (binding assay)
[4] = biological target: c-Kit, on TUBO cells (Mus musculus) (UniProt P05532); test: activity in cells; settings: PS between last 3 nt at 5' end of DNA aptamer; C3 spacer between aptamer and RNA passenger; 2'-F-U in RNA; 3' TEG-cholesterol on second passenger; TUBO cell number reduction by chimera, not a binding constant; protein on the cell surface
[5] = biological target: KIT (CD117), on MDA-MB-231 cells (Homo sapiens) (UniProt P10721); test: flow cytometry; settings: MDA-MB-231 cells; distribution nearly identical to anti-KIT antibody; protein on the cell surface; label: 3' biotin; single-stranded DNA

Amino acid sequences for entries named in this document (tags omitted). Residues count along the entry.
UniProt P10721, 26-976 L764I/P838H: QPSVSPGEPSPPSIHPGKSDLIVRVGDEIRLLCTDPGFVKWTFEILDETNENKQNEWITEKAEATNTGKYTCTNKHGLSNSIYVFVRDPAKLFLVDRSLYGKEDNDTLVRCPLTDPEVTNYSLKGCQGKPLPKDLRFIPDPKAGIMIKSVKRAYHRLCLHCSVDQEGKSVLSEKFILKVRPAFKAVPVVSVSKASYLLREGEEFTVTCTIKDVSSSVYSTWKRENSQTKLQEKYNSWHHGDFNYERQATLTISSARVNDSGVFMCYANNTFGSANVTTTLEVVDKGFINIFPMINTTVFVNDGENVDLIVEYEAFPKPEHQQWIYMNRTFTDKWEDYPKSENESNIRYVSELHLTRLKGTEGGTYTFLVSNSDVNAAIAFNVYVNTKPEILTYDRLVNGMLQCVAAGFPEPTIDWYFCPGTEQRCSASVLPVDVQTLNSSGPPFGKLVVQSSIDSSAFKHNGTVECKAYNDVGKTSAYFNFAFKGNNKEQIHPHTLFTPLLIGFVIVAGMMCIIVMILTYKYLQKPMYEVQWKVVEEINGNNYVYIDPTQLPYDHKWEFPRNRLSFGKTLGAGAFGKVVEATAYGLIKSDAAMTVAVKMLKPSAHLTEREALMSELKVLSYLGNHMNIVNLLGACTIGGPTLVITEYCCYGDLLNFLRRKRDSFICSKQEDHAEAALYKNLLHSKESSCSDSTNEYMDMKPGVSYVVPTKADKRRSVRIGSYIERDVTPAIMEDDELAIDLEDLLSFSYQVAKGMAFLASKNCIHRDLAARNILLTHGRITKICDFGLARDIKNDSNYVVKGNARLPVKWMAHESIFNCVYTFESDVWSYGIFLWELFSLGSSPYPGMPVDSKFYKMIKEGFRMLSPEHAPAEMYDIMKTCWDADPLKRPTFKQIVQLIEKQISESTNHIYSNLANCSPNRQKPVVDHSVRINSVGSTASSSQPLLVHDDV
UniProt P05532, 25-979: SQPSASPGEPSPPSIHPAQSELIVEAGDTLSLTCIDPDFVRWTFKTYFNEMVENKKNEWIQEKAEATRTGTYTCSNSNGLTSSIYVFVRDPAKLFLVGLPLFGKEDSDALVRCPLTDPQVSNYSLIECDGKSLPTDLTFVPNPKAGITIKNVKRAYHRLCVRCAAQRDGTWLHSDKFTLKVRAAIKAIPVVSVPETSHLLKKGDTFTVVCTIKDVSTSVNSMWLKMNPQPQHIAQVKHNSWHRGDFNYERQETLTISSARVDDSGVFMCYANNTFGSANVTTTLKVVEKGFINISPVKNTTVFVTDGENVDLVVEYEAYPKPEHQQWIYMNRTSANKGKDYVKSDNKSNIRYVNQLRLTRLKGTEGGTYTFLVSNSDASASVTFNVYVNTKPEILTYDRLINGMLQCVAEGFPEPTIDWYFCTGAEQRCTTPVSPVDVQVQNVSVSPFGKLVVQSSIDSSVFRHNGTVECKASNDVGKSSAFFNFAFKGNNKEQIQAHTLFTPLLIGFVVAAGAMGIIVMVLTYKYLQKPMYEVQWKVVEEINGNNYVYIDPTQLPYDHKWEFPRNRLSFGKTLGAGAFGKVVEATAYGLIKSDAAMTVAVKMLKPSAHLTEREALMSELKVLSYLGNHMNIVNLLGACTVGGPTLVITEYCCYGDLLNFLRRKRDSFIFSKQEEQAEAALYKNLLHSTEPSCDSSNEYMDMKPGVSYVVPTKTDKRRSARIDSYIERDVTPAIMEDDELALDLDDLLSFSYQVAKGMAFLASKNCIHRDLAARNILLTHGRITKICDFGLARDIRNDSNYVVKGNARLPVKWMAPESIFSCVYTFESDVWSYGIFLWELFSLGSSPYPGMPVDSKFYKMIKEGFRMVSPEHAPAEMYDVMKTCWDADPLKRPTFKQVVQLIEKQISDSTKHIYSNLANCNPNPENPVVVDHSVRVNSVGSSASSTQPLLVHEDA

For “GAGGCATACCAGCTTATTCAAGGGGCCGGGGCAAGGGGGGGGTACCGTGGTAGGACATAGTAAGTGCAATCTGCGAACCUAUUCUGG / GUUACUUGCACG / UUCAAGUAAUCCAGGAUAGGCU [human KIT aptamer-miR-26a chimera]”, the “functional effect of the aptamer” value [1] was “active”.
“GCTCAACGCGGGACGGCTCTCCCATTGACAAGTTCATTA / CACCCCACCTCGCTCCCGTGACACTAATGCTATAATGAACTT [mouse c-Kit aptamer-CD63 aptamer linker chimera]” was tested, and the “functional effect of the aptamer” value [2] was “active”.
In the case of “GCTCAACGCGGGACGGCTCTCCCATTGACCCUAUUCUGG / GUUACUUGCACG / UUCAAGUAAUCCAGGAUAGGCU [mouse c-Kit aptamer-miR-26a chimera]”, the binding result [3] was “binds” and the pIC50 [4] was 7.08.
“GAGGCATACCAGCTTATTCAAGGGGCCGGGGCAAGGGGGGGGTACCGTGGTAGGACATAGTAAGTGCAATCTGCGAA [anti-human KIT DNA aptamer]”: binds [5].
